Where a name gives a salt, the structure may show the parent alone. Some of the results follow. The calls rarely recur for the same compound in another form.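 Kinases, fused to nanoluciferase, were expressed in K562 cells; luminescence was measured every 4 h from 2 to 18 h as percent of control (DMSO = 100%, positive control = 0%). A time point is decreased if signal falls significantly (2 sigma). Hits were called by the authors by a rule that is not shown; the count of time points alone does not decide it.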

Amino acid sequences for entries named in this document (tags omitted).
UniProt Q16620, whole entry, looked up: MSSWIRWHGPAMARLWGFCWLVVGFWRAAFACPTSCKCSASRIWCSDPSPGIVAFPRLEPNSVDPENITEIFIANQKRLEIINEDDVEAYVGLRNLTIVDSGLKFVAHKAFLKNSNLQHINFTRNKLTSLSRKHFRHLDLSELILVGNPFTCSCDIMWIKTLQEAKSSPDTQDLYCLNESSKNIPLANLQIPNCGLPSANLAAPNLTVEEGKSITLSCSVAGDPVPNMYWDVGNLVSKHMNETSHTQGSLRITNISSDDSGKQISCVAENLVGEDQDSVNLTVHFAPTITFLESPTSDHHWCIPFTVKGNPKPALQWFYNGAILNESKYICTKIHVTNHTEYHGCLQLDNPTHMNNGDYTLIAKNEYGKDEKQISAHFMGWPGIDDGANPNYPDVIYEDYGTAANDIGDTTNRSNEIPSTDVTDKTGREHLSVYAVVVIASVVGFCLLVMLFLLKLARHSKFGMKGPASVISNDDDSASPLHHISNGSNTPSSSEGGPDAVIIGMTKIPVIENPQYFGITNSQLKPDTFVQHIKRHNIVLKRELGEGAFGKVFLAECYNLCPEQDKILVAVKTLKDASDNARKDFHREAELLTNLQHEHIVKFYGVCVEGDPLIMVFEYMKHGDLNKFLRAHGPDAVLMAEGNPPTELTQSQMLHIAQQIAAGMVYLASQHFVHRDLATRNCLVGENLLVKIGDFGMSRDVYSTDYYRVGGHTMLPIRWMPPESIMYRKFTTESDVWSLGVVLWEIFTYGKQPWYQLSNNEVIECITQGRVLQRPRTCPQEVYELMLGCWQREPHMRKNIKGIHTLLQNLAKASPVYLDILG

The target in the test is NTRK2 (UniProt Q16620). The test can be described thus: number of time points (of 5) at which kinase-Nluc abundance scored as decreased, DMSO-normalised (count); higher = more persistent destabilization. The note with it: K562; 2-18 h.
As for `OC(COc1ccc(C(F)(F)F)cc1)CN(Cc1ccccc1)Cc1ccccc1` (centres undefined) (2.5 µM), the “number of time points” value is 0.
As to `C[C@@H]1C(=O)O[C@H](C)[C@H]1C[C@@H](O)[C@](C)(O)[C@H]1CC[C@@]2(O)C3=CC(=O)[C@@H]4C[C@@H](O)[C@@H](O)C[C@]4(C)[C@H]3CC[C@]12C` [Cyasterone] (10 µM), the “number of time points” value was 0.
As for `Cc1c(CN2CCN(C(=O)[C@H](C)O)CC2)sc2c(N3CCOCC3)nc(-c3cnc(N)nc3)nc12` [Apitolisib] (10 µM), the “number of time points” value amounted to 0.
As to `CC(C)(C)NC(=O)c1cncn1C1CCN(c2ccc(-c3nnc(C(F)(F)F)o3)cn2)CC1` (10 µM), the “number of time points” value stood at 0.
As for `NCc1ccc(Nc2ncc(F)c(Nc3ccccc3)n2)cc1` (10 µM), the “number of time points” value is 0.
As to `COC1(c2sc3c(N4CCOCC4)nc(-c4cnc(N)nc4)nc3c2C)COC1` (2.5 µM), the “number of time points” value was determined as 0.
On to `COc1cc2c[n+](C)c3c4cc5c(cc4ccc3c2cc1OC)OCO5` [Nitidine (chloride)] (2 µM), for which the “number of time points” value came out at 0.
`N#Cc1ccc2ncnc(NC3CCC(N4CCOCC4)CC3)c2c1` (centres undefined) (10 µM): the “number of time points” value is 0.
The figure for `COc1ccc2c(c1O)OC(C)(C)c1c-2ccc2c1C(=O)N(c1ccc(C(=O)c3ccccc3)cc1)C2=O` [Ampkinone] (10 µM) is 0; for `CC1=C2C(=O)O[C@@H](c3ccoc3)[C@]2(C)CCC1` [Fraxinellone] (10 µM) it is 0.
In the case of `CS(=O)(=O)c1ccc(-c2cnc(N)c(C(=O)Nc3ccccc3)n2)cc1` (10 µM), the “number of time points” value is 0.
The figure for `O=C(NC(NC(=S)Nc1ccc(F)c([N+](=O)[O-])c1)C(Cl)(Cl)Cl)C(c1ccccc1)c1ccccc1` (centres undefined) (10 µM) is 0; for `COc1cc(C(N)=O)nc(-c2cccc(C#C[C@]3(O)CCN(C)C3=O)c2)c1` (10 µM) it is 0.
In the case of `O=C(Nc1cc(Oc2cc(F)c(NC(=O)C3(C(=O)Nc4ccc(F)cc4)CC3)cc2F)ccn1)C1CC1` [Altiratinib] (10 µM), the “number of time points” value worked out at 0.
For the compound `COc1ccc(Cl)cc1NC(=O)Nc1cc(C)nc2ccccc12` (2.5 µM), the “number of time points” value came to 0.
In the case of `COc1ccc(CC(=O)Nc2nc3c(s2)CCc2ccccc2-3)cc1OC` (10 µM), the “number of time points” value stood at 0.
The figure for `N[C@H](Cc1c[nH]c2ccccc12)C(=O)N/N=C/c1ccc2nccnc2c1` [Rhosin (hydrochloride)] (10 µM) is 0; for `CC(C)(C)c1ccc(S(=O)(=O)Nc2ccc(-n3ccnc3)cc2)cc1` (10 µM) it is 0.
Turning to `Cc1ccc(-c2c(C(=O)CF)n(CCCO)c3ncnc(N)c23)cc1` (10 µM), the “number of time points” value was found to be 0.

The values are drawn from the supplement of paper PMC12823440, “Inhibitors supercharge kinase turnover through native proteolytic circuits” (Nature, 2025).
